No constants are given. Whether binding was seen depends on the method and setting.
Target: T1, Cdc24 (S. cerevisiae), P11433
T1 chain: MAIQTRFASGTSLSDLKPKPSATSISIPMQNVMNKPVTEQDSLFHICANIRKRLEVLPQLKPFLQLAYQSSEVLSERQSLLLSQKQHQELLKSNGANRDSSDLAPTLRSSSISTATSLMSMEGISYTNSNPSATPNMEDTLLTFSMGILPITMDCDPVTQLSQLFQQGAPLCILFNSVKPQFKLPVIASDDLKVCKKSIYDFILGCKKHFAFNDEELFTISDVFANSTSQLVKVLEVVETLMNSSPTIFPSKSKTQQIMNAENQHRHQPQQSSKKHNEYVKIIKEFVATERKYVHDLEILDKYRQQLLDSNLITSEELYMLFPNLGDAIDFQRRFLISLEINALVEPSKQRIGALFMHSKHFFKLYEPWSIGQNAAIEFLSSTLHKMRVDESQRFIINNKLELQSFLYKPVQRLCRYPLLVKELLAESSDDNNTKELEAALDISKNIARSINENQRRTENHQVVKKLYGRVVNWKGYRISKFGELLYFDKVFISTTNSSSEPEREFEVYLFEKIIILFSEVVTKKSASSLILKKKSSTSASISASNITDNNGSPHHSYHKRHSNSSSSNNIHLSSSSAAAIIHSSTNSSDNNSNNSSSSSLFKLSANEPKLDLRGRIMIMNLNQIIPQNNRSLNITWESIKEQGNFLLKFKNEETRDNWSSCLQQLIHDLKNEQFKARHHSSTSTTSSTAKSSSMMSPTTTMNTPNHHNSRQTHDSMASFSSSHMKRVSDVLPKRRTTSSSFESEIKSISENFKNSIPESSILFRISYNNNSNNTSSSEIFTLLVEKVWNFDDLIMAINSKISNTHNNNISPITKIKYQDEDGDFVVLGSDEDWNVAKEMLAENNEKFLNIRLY
Test: SEC-MALS; single purified proteins; Superdex 200 Increase 10/300 GL, SEC buffer (50 mM Tris-HCl pH 7.5, 100 mM NaCl, 10 mM MgCl2, 1 mM 2-mercaptoethanol) with 0.02% sodium azide, 0.5 mL/min; samples 5.7–7.1 µM; fractions analysed by SDS-PAGE and anti-His western blot; both purified
Conditions: remark: other sources report otherwise

B1: Cdc24, P11433 1-854 (enzyme)
chain: MAIQTRFASGTSLSDLKPKPSATSISIPMQNVMNKPVTEQDSLFHICANIRKRLEVLPQLKPFLQLAYQSSEVLSERQSLLLSQKQHQELLKSNGANRDSSDLAPTLRSSSISTATSLMSMEGISYTNSNPSATPNMEDTLLTFSMGILPITMDCDPVTQLSQLFQQGAPLCILFNSVKPQFKLPVIASDDLKVCKKSIYDFILGCKKHFAFNDEELFTISDVFANSTSQLVKVLEVVETLMNSSPTIFPSKSKTQQIMNAENQHRHQPQQSSKKHNEYVKIIKEFVATERKYVHDLEILDKYRQQLLDSNLITSEELYMLFPNLGDAIDFQRRFLISLEINALVEPSKQRIGALFMHSKHFFKLYEPWSIGQNAAIEFLSSTLHKMRVDESQRFIINNKLELQSFLYKPVQRLCRYPLLVKELLAESSDDNNTKELEAALDISKNIARSINENQRRTENHQVVKKLYGRVVNWKGYRISKFGELLYFDKVFISTTNSSSEPEREFEVYLFEKIIILFSEVVTKKSASSLILKKKSSTSASISASNITDNNGSPHHSYHKRHSNSSSSNNIHLSSSSAAAIIHSSTNSSDNNSNNSSSSSLFKLSANEPKLDLRGRIMIMNLNQIIPQNNRSLNITWESIKEQGNFLLKFKNEETRDNWSSCLQQLIHDLKNEQFKARHHSSTSTTSSTAKSSSMMSPTTTMNTPNHHNSRQTHDSMASFSSSHMKRVSDVLPKRRTTSSSFESEIKSISENFKNSIPESSILFRISYNNNSNNTSSSEIFTLLVEKVWNFDDLIMAINSKISNTHNNNISPITKIKYQDEDGDFVVLGSDEDWNVAKEMLAENNEKFLNIRLY
  binding: no binding (tested: 5.7–7.1 µM)

Source: article PMC13022455, “Oligomerization-dependent and synergistic regulation of Cdc42 GTPase cycling by a GEF and a GAP” (EMBO Reports, 2026)
